## Screening data, single-dose tests

The values are deposited in ChEMBL (CHEMBL3988442, “University of Dundee, Small-Polar-MMV Screening Library” (2021)).

Values are the deposited “Percent Effect”, in %. The record does not define 0% and 100%; most values in the screen are far below 50% and negative numbers occur (in some assays of this library far below -100). This is an unselected part of the compounds tested. Two or more numbers in one place are separate tests of the same structure; such repeats can differ widely.

A: 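Phenotypic screen: M. tuberculosis growth, cholesterol and DPPC medium, 4 days; the read-out is not stated. Compounds at 50 µM. The record gives no direction; compounds that gave an IC50 in retests scored well above the rest, so higher reads as more growth inhibition. Size under these conditions: about 69,000 compounds, about 370 of them at 50% or above in at least one test.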
B: 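Whole-cell growth test on Mycobacterium tuberculosis, read after 3 days in glucose-containing 7H9 medium; the read-out is not stated. Compounds at 50 µM. The record gives no direction; compounds that gave an IC50 in retests scored well above the rest, so higher reads as more growth inhibition. About 69,000 compounds were tested under these conditions; 1.1% (about 760) showed 50% or more at least once.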

- CN(Cc1ccc(Br)o1)C(=O)Nc1cccnc1 | A: -7.208%; B: 14.5%
- CC(=O)c1cc(CN2C[C@@H](C(=O)O)[C@H](c3cccnc3)C2)cs1 | A: 22.21%; B: 8.569%
- O=C(Cc1cn2ccsc2n1)N1CCOCC(O)(CN2CCCC2)C1 (stereo unspecified) | A: -2.002%; B: 9.454%
- Cn1c(-c2cc3n(n2)CCCN(CC(=O)O)C3)nc2ccccc21 | A: -24.12%; B: -24.69%
- CC(=O)Nc1nc(CNc2ccccc2CCC(F)(F)F)cs1 | A: 16.09%; B: 6.395% & 20.22%
- NC(=O)N1CCCC(C(=O)NCCOc2ccc3c(c2)OCO3)C1 (stereo unspecified) | A: -1.877%; B: -29.24% & -4.833%
- COc1cc2c(cc1-c1nc3c(cnn3C(C)C)[nH]1)OCO2 | A: -0.1687% & -5.063%; B: 12.7%
- CC(C)NC(=O)c1nc2c(s1)CCCN2C(C)C | A: 19.56%; B: -18.41% & 4.658%
- CC(C)c1noc(CCC(=O)NCC2CCS(=O)(=O)C2)n1 (stereo unspecified) | A: -4.69%; B: 3.486%
- CCCOC1CCCN(C(=O)c2csc(S(N)(=O)=O)c2)C1 (stereo unspecified) | A: -20.74%; B: -6.516%
- COC(=O)NCC(=O)NC(c1ccc(Cl)cc1)C(F)(F)F (stereo unspecified) | A: -5.564%; B: -4.277% & 8.791%
- OC(COCc1cccs1)Cn1cc(-n2cccc2)cn1 (stereo unspecified) | A: 6.956%; B: 5.813% & 13.22%
- CCC1CCCN(Cc2nc(N)c3ccccc3n2)C1 (stereo unspecified) | A: -36.81%; B: 7.919%
- CNC(=O)C(NC(=O)c1nccn2ccnc12)c1ccc(F)c(F)c1 (stereo unspecified) | A: 1.566% & 0.878%; B: 18.09%
- O=C(CSc1nnc2n1N=CN(c1ccccc1)C2)c1ccccc1 | A: -3.57%; B: -3.431% & -8.177%
- CCc1nc(C)cn1C(=O)Nc1ccccc1 | A: -5.878%; B: -17.38%
- CC(=O)N1CCN(Cc2ccc(F)c(C(F)(F)F)c2)CC(O)C1 (stereo unspecified) | A: 19.85%; B: 2.425% & 0.2354%
- CCN(Cc1ccccc1Cl)Cn1nc(C)c2c(C)onc2c1=O | A: 13.06%; B: 18.65%
- CS(=O)(=O)NCC1CCCN(C(=O)COCC2CC2)C1 (stereo unspecified) | A: 4.693%; B: 7.471%
- CC(C)c1nc(CN(C)S(=O)(=O)c2cccs2)cs1 | A: -4.496%; B: 3.739% & 1.785%
- [H][C@]12CCN(c3ncccc3Cl)C[C@]1(COC)CC[C@@H](N1CCOCC1)C2 | A: 4.53%; B: 31.54%
- CCOCc1nc(CSc2ccncc2)n(C2CCN(C)CC2)n1 | A: -8.739%; B: 2.233%
- c1ccc2c(NCC3(N4CCOCC4)CCSC3)ncnc2c1 (stereo unspecified) | A: 0.4335%; B: -0.6719% & -4.605%
- COCc1noc(-c2cc(Cl)c3c(c2)OCCCO3)n1 | A: 21.7%; B: -11.08%
- CS(=O)(=O)NCCNC(=O)NC1(c2ccc(F)cc2)CCCC1 | A: 1.248%; B: -8.392%
- CNc1oc(-c2ccc(OC)c(S(=O)(=O)N3CCCCC3)c2)nc1C#N | A: -6.664%; B: -14.69%
- COc1ccccc1OCCCn1c(C)c(C)oc1=O | A: -8.411%; B: -4.16%
- Cc1cc(N(C)Cc2noc(C)n2)n2nc(C)c(C)c2n1 | A: -13.54%; B: 6.224% & -5.966%
- CC(C)CNC(=O)NC(=O)C(C)Nc1cccc(CN2CCOC2=O)c1 (stereo unspecified) | A: -1.128%; B: -12%
- CC(C)Nc1ncnc2c1CCN(Cc1nccn1C)CC2.O=C(O)C(F)(F)F.O=C(O)C(F)(F)F | A: -9.884%; B: -5.712% & -19.88%
- NC(=O)C1Cn2ccnc2C2(CCN(C(=O)NC3CCCC3)CC2)O1.O=C(O)C(F)(F)F (stereo unspecified) | A: 12.95%; B: 17.14%
- CS(=O)(=O)NCC(=O)NC1CCCN(c2ccccn2)C1 (stereo unspecified) | A: 11.1% & 1.786%; B: 9.933%
- OCCN1CCC(Cc2nccs2)CC1 | A: -6.602% & -1.273%; B: -2.658%

For reference, 3 entries once more:

With CC(=O)c1cc(CN2C[C@@H](C(=O)O)[C@H](c3cccnc3)C2)cs1 the screen gave A: 22.21%; B: 8.569%.
With CCc1nc(C)cn1C(=O)Nc1ccccc1 the screen gave A: -5.878%; B: -17.38%.
With CS(=O)(=O)NCCNC(=O)NC1(c2ccc(F)cc2)CCCC1 the screen gave A: 1.248%; B: -8.392%.